We go through 28 compounds from the supplement of paper PMC4604168 (melanoma cell lines).

SMILES strings stand for the structures. The list shows a part of the results. Many values rest on one well or one pass, so single values are uncertain.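 The apoptosis fraction was the count of cleaved-PARP antibody-stained nuclei relative to all DNA-stained nuclei, imaged in 1,536-well plates. Screening doses were set so most cells survived, and baseline and induced cleaved-PARP levels vary greatly across cell lines.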

In the first assay the test system is G361. The assay can be described thus: cleaved PARP positive nuclei fraction relative to DMSO control; melanoma cells; higher = more apoptosis. The settings on record: library dose: low library concentration; 72 h.
Consider `Cc1cc(Nc2cc(N3CCN(C)CC3)nc(/C=C/c3ccccc3)n2)n[nH]1` + C#Cc1cccc(Nc2ncnc3cc(OCCOC)c(OCCOC)cc23)c1 [erlotinib] (first compound 0.04 µM, partner dose 0.8 µM), for which the “cleaved PARP positive nuclei fraction” value turned out to be 77.2%.

For the compound `Nc1ccn([C@@H]2O[C@H](CO)[C@@H](O)C2(F)F)c(=O)n1` [gemcitabine] + COc1ccc(Cl)c(Nc2nc3ccccc3nc2NS(=O)(=O)c2cccc(NC(=O)C(C)(C)N)c2)c1 [XL147] (first compound 0.0004 µM, partner dose 0.8 µM), the “cleaved PARP positive nuclei fraction” value was determined as 158%.

As to `Cc1cc(Nc2cc(N3CCN(C)CC3)nc(/C=C/c3ccccc3)n2)n[nH]1` + CNC(=O)c1cc(Oc2ccc(NC(=O)Nc3ccc(Cl)c(C(F)(F)F)c3)cc2)ccn1 [sorafenib] (first compound 0.04 µM, partner dose 0.4 µM), the “cleaved PARP positive nuclei fraction” value turned out to be 146%.

As for `O=C(O)c1ccc2c(c1)nc(Nc1cccc(Cl)c1)c1ccncc12` + Nc1nc(F)nc2c1ncn2[C@@H]1O[C@H](CO)[C@@H](O)[C@@H]1O [fludarabine] (first compound 0.4 µM, partner dose 0.2 µM), the “cleaved PARP positive nuclei fraction” value was 145%.

Take `O=C(O)c1ccc2c(c1)nc(Nc1cccc(Cl)c1)c1ccncc12` + Nc1cccc2c1CN(C1CCC(=O)NC1=O)C2=O [lenalidomide] (first compound 0.4 µM, partner dose 1 µM): the “cleaved PARP positive nuclei fraction” value worked out at 138%.

With `Nc1ncn([C@H]2C[C@H](O)[C@@H](CO)O2)c(=O)n1` [decitabine] + OCc1c[nH]c2ccccc12 [Indole-3-carbinol] (first compound 0.1 µM, partner dose 0.8 µM), the “cleaved PARP positive nuclei fraction” value came out at 226%.

With `CC(C)C[C@H](NC(=O)[C@H](Cc1ccccc1)NC(=O)c1cnccn1)B(O)O` [Bortezomib] + Cn1c(Nc2ccc(C(F)(F)F)cc2)nc2cc(Oc3ccnc(-c4ncc(C(F)(F)F)[nH]4)c3)ccc21 [CHIR265] (first compound 0.001 µM, partner dose 0.08 µM), the “cleaved PARP positive nuclei fraction” value is 8210%.

Take `Cn1c(=O)n(-c2ccc(C(C)(C)C#N)cc2)c2c3cc(-c4cnc5ccccc5c4)ccc3ncc21` + C[C@]1(c2nc3c(C(N)=O)cccc3[nH]2)CCCN1 [Veliparib] (first compound 0.004 µM, partner dose 1.4 µM): the “cleaved PARP positive nuclei fraction” value was found to be 122%.

For `CS(=O)(=O)CCNCc1ccc(-c2ccc3ncnc(Nc4ccc(OCc5cccc(F)c5)c(Cl)c4)c3c2)o1` [lapatinib] + COCC[n+]1c2c(n(Cc3cnccn3)c1C)C(=O)c1ccccc1C2=O [YM155] (first compound 0.8 µM, partner dose 0.0004 µM), the “cleaved PARP positive nuclei fraction” value worked out at 150%.

As for `CCCS(=O)(=O)Nc1ccc(F)c(C(=O)c2c[nH]c3ncc(Cl)cc23)c1F` + Nc1nc(F)nc2c1ncn2[C@@H]1O[C@H](CO)[C@@H](O)[C@@H]1O [fludarabine] (first compound 0.08 µM, partner dose 0.2 µM), the “cleaved PARP positive nuclei fraction” value was 119%.

Regarding `Cc1cc(Nc2cc(N3CCN(C)CC3)nc(/C=C/c3ccccc3)n2)n[nH]1` + CO[C@H]1C[C@@H]2CC[C@@H](C)[C@@](O)(O2)C(=O)C(=O)N2CCCC[C@H]2C(=O)O[C@H]([C@H](C)C[C@@H]2CC[C@@H](OCCO)[C@H](OC)C2)CC(=O)[C@H](C)/C=C(\C)[C@@H](O)[C@@H](OC)C(=O)[C@H](C)C[C@H](C)/C=C/C=C/C=C/1C [everolimus] (first compound 0.04 µM, partner dose 0.02 µM), the “cleaved PARP positive nuclei fraction” value stood at 271%.

Regarding `CCCS(=O)(=O)Nc1ccc(F)c(C(=O)c2c[nH]c3ncc(Cl)cc23)c1F` + Nc1ncn([C@H]2C[C@H](O)[C@@H](CO)O2)c(=O)n1 [decitabine] (first compound 0.08 µM, partner dose 0.1 µM), the “cleaved PARP positive nuclei fraction” value came to 206%.

Another assay relates to IPC-298. The assay is described as above. The settings on record: library dose: low library concentration; 72 h.
For the compound `Cn1c(=O)n(-c2ccc(C(C)(C)C#N)cc2)c2c3cc(-c4cnc5ccccc5c4)ccc3ncc21` + CN1CCN(c2ccc3nc(-c4c(N)c5c(F)cccc5[nH]c4=O)[nH]c3c2)CC1 [Dovitinib] (first compound 0.004 µM, partner dose 0.1 µM), the “cleaved PARP positive nuclei fraction” value worked out at 89.3%.

As to `O=C(O)c1ccc2c(c1)nc(Nc1cccc(Cl)c1)c1ccncc12` + COc1ccc(Cl)c(Nc2nc3ccccc3nc2NS(=O)(=O)c2cccc(NC(=O)C(C)(C)N)c2)c1 [XL147] (first compound 0.4 µM, partner dose 0.8 µM), the “cleaved PARP positive nuclei fraction” value was 101%.

Consider `CNC(=O)c1cc(Oc2ccc(NC(=O)Nc3ccc(Cl)c(C(F)(F)F)c3)cc2)ccn1` [sorafenib] + OCc1c[nH]c2ccccc12 [Indole-3-carbinol] (first compound 0.4 µM, partner dose 0.8 µM), for which the “cleaved PARP positive nuclei fraction” value stood at 292%.

Regarding `CO[C@H]1C[C@@H]2CC[C@@H](C)[C@@](O)(O2)C(=O)C(=O)N2CCCC[C@H]2C(=O)O[C@H]([C@H](C)C[C@@H]2CC[C@@H](OCCO)[C@H](OC)C2)CC(=O)[C@H](C)/C=C(\C)[C@@H](O)[C@@H](OC)C(=O)[C@H](C)C[C@H](C)/C=C/C=C/C=C/1C` [everolimus] + O=C(O)c1ccc2c(c1)nc(Nc1cccc(Cl)c1)c1ccncc12 [CX4945] (first compound 0.02 µM, partner dose 0.4 µM), the “cleaved PARP positive nuclei fraction” value was 136%.

Turning to `Cn1c(=O)n(-c2ccc(C(C)(C)C#N)cc2)c2c3cc(-c4cnc5ccccc5c4)ccc3ncc21` + O=C(O)c1ccc2c(c1)nc(Nc1cccc(Cl)c1)c1ccncc12 [CX4945] (first compound 0.004 µM, partner dose 0.4 µM), the “cleaved PARP positive nuclei fraction” value stood at 62.8%.

In the case of `CNC(=O)c1cc(Oc2ccc(NC(=O)Nc3ccc(Cl)c(C(F)(F)F)c3)cc2)ccn1` [sorafenib] + Cn1c(Nc2ccc(C(F)(F)F)cc2)nc2cc(Oc3ccnc(-c4ncc(C(F)(F)F)[nH]4)c3)ccc21 [CHIR265] (first compound 0.4 µM, partner dose 0.08 µM), the “cleaved PARP positive nuclei fraction” value is 269%.

`Cc1cc(Nc2cc(N3CCN(C)CC3)nc(/C=C/c3ccccc3)n2)n[nH]1` + NC1(c2ccc(-c3nc4ccn5c(=O)[nH]nc5c4cc3-c3ccccc3)cc2)CCC1 [MK2206] (first compound 0.04 µM, partner dose 0.4 µM): the “cleaved PARP positive nuclei fraction” value is 140%.

Turning to `CC(C)C[C@H](NC(=O)[C@H](Cc1ccccc1)NC(=O)c1cnccn1)B(O)O` [Bortezomib] + CS(=O)(=O)CCNCc1ccc(-c2ccc3ncnc(Nc4ccc(OCc5cccc(F)c5)c(Cl)c4)c3c2)o1 [lapatinib] (first compound 0.001 µM, partner dose 0.8 µM), the “cleaved PARP positive nuclei fraction” value turned out to be 231%.

Regarding `CO[C@H]1C[C@@H]2CC[C@@H](C)[C@@](O)(O2)C(=O)C(=O)N2CCCC[C@H]2C(=O)O[C@H]([C@H](C)C[C@@H]2CC[C@@H](OCCO)[C@H](OC)C2)CC(=O)[C@H](C)/C=C(\C)[C@@H](O)[C@@H](OC)C(=O)[C@H](C)C[C@H](C)/C=C/C=C/C=C/1C` [everolimus] + Cn1nnc2c(C(N)=O)ncn2c1=O [temozolomide] (first compound 0.02 µM, partner dose 2 µM), the “cleaved PARP positive nuclei fraction” value stood at 114%.

As to `O=C(O)[C@@H]1[O][Sb](=[O])([O][Sb]2(=[O])[O][C@H]([C@H](O)CO)[C@H](O)[C@H](C(=O)O)[O]2)[O][C@H]([C@H](O)CO)[C@@H]1O` (stereo partly drawn) [stibogluconate] + C#Cc1cccc(Nc2ncnc3cc(OCCOC)c(OCCOC)cc23)c1 [erlotinib] (first compound 2 µM, partner dose 0.8 µM), the “cleaved PARP positive nuclei fraction” value came to 164%.

On to `C=C(c1ccc(C(=O)O)cc1)c1cc2c(cc1C)C(C)(C)CCC2(C)C` [Bexarotene] + Nc1nc(F)nc2c1ncn2[C@@H]1O[C@H](CO)[C@@H](O)[C@@H]1O [fludarabine] (first compound 2 µM, partner dose 0.2 µM), for which the “cleaved PARP positive nuclei fraction” value turned out to be 97.4%.

Consider `CNC(=O)c1cc(Oc2ccc(NC(=O)Nc3ccc(Cl)c(C(F)(F)F)c3)cc2)ccn1` [sorafenib] + C=CCNC1=C2C[C@@H](C)C[C@H](OC)[C@H](O)[C@@H](C)/C=C(\C)[C@H](OC(N)=O)[C@@H](OC)/C=C\C=C(/C)C(=O)NC(=CC1=O)C2=O [Tanespimycin] (first compound 0.4 µM, partner dose 0.002 µM), for which the “cleaved PARP positive nuclei fraction” value is 45.8%.

As to `Cn1c(=O)n(-c2ccc(C(C)(C)C#N)cc2)c2c3cc(-c4cnc5ccccc5c4)ccc3ncc21` + Nc1ncn([C@H]2C[C@H](O)[C@@H](CO)O2)c(=O)n1 [decitabine] (first compound 0.004 µM, partner dose 0.1 µM), the “cleaved PARP positive nuclei fraction” value stood at 279%.

Consider `CC(C)C[C@H](NC(=O)[C@H](Cc1ccccc1)NC(=O)c1cnccn1)B(O)O` [Bortezomib] + C=C(c1ccc(C(=O)O)cc1)c1cc2c(cc1C)C(C)(C)CCC2(C)C [Bexarotene] (first compound 0.001 µM, partner dose 2 µM), for which the “cleaved PARP positive nuclei fraction” value was 110%.

As to `CCCS(=O)(=O)Nc1ccc(F)c(C(=O)c2c[nH]c3ncc(Cl)cc23)c1F` + COCC[n+]1c2c(n(Cc3cnccn3)c1C)C(=O)c1ccccc1C2=O [YM155] (first compound 0.08 µM, partner dose 0.0004 µM), the “cleaved PARP positive nuclei fraction” value was 57.2%.

On to `CN1CCN(c2ccc3nc(-c4c(N)c5c(F)cccc5[nH]c4=O)[nH]c3c2)CC1` [Dovitinib] + Cn1c(Nc2ccc(C(F)(F)F)cc2)nc2cc(Oc3ccnc(-c4ncc(C(F)(F)F)[nH]4)c3)ccc21 [CHIR265] (first compound 0.1 µM, partner dose 0.08 µM), for which the “cleaved PARP positive nuclei fraction” value came to 37.6%.
